Measured data: PubChem BioAssay AID652272 (Drosophila RNAi Screening Center, 2013)
In all, the deposit lists about 21,000 reagents; below is an unselected part of those that have a named target and a result. In the full data, 503 (2.4%) are marked active. 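Raw plate light values, not normalised; calls rest on replicate z-scores that were not deposited; hits include reporter decreases as well as increases.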 Unmarked entries are inactive. Names joined by + are all predicted targets of the reagent. Not stated in the record: the amount of reagent, the time to read-out.

Aim: 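Genome-wide knock-down search for components of Hedgehog signalling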 (primary screen)
Cell system: Drosophila clone 8 (Cl8) cells
Reagent: long dsRNA against Drosophila genes
Detection: 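Plate reader light from a firefly reporter under a ptc promoter fragment that responds to Hedgehog, with Renilla light as transfection reference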
Scale: firefly Hh reporter signal: higher = more ptc reporter light; Renilla reference signal: higher = more Renilla control light
Rule for the call: 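Called a hit if the two-replicate mean z-score lies below -2 or above +3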
Meaning of the calls: active = hit: reporter lowered or raised; inactive = not a hit

Against CG6664 [DRSC10690] the deposit lists firefly Hh reporter signal, replicate 1 = 78689; firefly Hh reporter signal, replicate 2 = 99713; Renilla reference signal, replicate 1 = 3533; Renilla reference signal, replicate 2 = 4192.
After knock-down of Jhbp1 [DRSC12167], the record shows firefly Hh reporter signal, replicate 1 = 1.11e5; firefly Hh reporter signal, replicate 2 = 1.37e5; Renilla reference signal, replicate 1 = 4137; Renilla reference signal, replicate 2 = 2645.
After knock-down of CG3719 [DRSC18493], the screen gave firefly Hh reporter signal, replicate 1 = 6.35e5; firefly Hh reporter signal, replicate 2 = 1.03e5; Renilla reference signal, replicate 1 = 3488; Renilla reference signal, replicate 2 = 3488.
CG14711 + Zaf1 [DRSC14934] scored firefly Hh reporter signal, replicate 1 = 1.02e5; firefly Hh reporter signal, replicate 2 = 1.45e5; Renilla reference signal, replicate 1 = 3616; Renilla reference signal, replicate 2 = 12756.
After knock-down of Gagr [DRSC10441], the record shows firefly Hh reporter signal, replicate 1 = 1.41e5; firefly Hh reporter signal, replicate 2 = 66971; Renilla reference signal, replicate 1 = 5282; Renilla reference signal, replicate 2 = 2596.
Depletion of Set8 [DRSC15473] resulted in: firefly Hh reporter signal, replicate 1 = 1.17e5; firefly Hh reporter signal, replicate 2 = 61603; Renilla reference signal, replicate 1 = 4680; Renilla reference signal, replicate 2 = 2786.
CG13708 [DRSC08317] gave firefly Hh reporter signal, replicate 1 = 72387; firefly Hh reporter signal, replicate 2 = 46404; Renilla reference signal, replicate 1 = 7383; Renilla reference signal, replicate 2 = 3394.
CAH9 [DRSC15963] showed firefly Hh reporter signal, replicate 1 = 1.28e5; firefly Hh reporter signal, replicate 2 = 1.50e5; Renilla reference signal, replicate 1 = 4981; Renilla reference signal, replicate 2 = 3496.
Sdhaf3 [DRSC15020] gave firefly Hh reporter signal, replicate 1 = 89821; firefly Hh reporter signal, replicate 2 = 74963; Renilla reference signal, replicate 1 = 3218; Renilla reference signal, replicate 2 = 1472.
Depletion of Gr33a [DRSC02589] gave: firefly Hh reporter signal, replicate 1 = 71309; firefly Hh reporter signal, replicate 2 = 40858; Renilla reference signal, replicate 1 = 2032; Renilla reference signal, replicate 2 = 3427.
RecQ5 [DRSC11266] gave firefly Hh reporter signal, replicate 1 = 76320; firefly Hh reporter signal, replicate 2 = 96228; Renilla reference signal, replicate 1 = 3257; Renilla reference signal, replicate 2 = 3569.
Knock-down of CG15800 [DRSC04271] came out at: firefly Hh reporter signal, replicate 1 = 77044; firefly Hh reporter signal, replicate 2 = 58327; Renilla reference signal, replicate 1 = 2164; Renilla reference signal, replicate 2 = 5495.

Entries listed so far whose target name begins with C or c (6):
CG6664 [DRSC10690] — firefly Hh reporter signal, replicate 1: 78689; firefly Hh reporter signal, replicate 2: 99713; Renilla reference signal, replicate 1: 3533; Renilla reference signal, replicate 2: 4192
CG3719 [DRSC18493] — firefly Hh reporter signal, replicate 1: 6.35e5; firefly Hh reporter signal, replicate 2: 1.03e5; Renilla reference signal, replicate 1: 3488; Renilla reference signal, replicate 2: 3488
CG14711 + Zaf1 [DRSC14934] — firefly Hh reporter signal, replicate 1: 1.02e5; firefly Hh reporter signal, replicate 2: 1.45e5; Renilla reference signal, replicate 1: 3616; Renilla reference signal, replicate 2: 12756
CG13708 [DRSC08317] — firefly Hh reporter signal, replicate 1: 72387; firefly Hh reporter signal, replicate 2: 46404; Renilla reference signal, replicate 1: 7383; Renilla reference signal, replicate 2: 3394
CAH9 [DRSC15963] — firefly Hh reporter signal, replicate 1: 1.28e5; firefly Hh reporter signal, replicate 2: 1.50e5; Renilla reference signal, replicate 1: 4981; Renilla reference signal, replicate 2: 3496
CG15800 [DRSC04271] — firefly Hh reporter signal, replicate 1: 77044; firefly Hh reporter signal, replicate 2: 58327; Renilla reference signal, replicate 1: 2164; Renilla reference signal, replicate 2: 5495
